{
  "sequences": {"note": "Amino acid sequences for entries named in this document (tags omitted).", "UniProt P04637, whole entry, looked up": "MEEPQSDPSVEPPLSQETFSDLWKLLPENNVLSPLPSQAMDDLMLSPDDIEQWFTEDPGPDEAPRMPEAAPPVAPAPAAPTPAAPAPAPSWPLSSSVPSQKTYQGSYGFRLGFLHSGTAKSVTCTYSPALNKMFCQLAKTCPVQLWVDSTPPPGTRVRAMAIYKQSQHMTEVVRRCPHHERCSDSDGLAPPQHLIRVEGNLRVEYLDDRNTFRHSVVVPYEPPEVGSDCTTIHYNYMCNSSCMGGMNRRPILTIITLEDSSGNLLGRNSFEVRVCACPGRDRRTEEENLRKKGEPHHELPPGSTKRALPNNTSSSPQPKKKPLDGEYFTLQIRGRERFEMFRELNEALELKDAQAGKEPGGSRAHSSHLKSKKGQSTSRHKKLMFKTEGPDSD"},
  "source": "PubChem BioAssay (NCATS)",
  "molecular_target": "Cellular tumor antigen p53 (Homo sapiens) (UniProt P04637)",
  "experiment": "Primary qHTS for small molecule compounds that upregulate eGFP-tagged delta133p53alpha (in N-terminal) cells. (AID 2060322);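 note: cells pre-induced with doxycycline then dosed without doxycycline; series mostly up to about 56 µM; 0% = DMSO vehicle and 100% = reference activator; nearly all actives have a fitted effect of over 75% in size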",
  "conditions": "NCI-H358 eGFP-delta133p53alpha fluorescence, 24 h; active compounds read high",
  "text": "Assay Development and Screening Technology\nNational Center for Advancing Translational Sciences (NCATS),\nNational Institute of Health (NIH), Rockville, Maryland\nCellular senescence (CS) is one of the hallmarks of aging and age-related diseases. Senescent cells are characterized by an irreversible growth arrest, an increase in senescence-associated beta-galactosidase (SA-beta-gal) activity and p16INK4a expression, an activation of the DNA damage response pathways, and the emergence of a senescence-associated secretory phenotype (SASP).\nDelta133p53alpha, a human/primate-specific p53 protein isoform, delays or inhibits the induction of CS and SASP in various types of human cells, including progeria-derived fibroblasts, primary normal astrocytes, and CD8+ T lymphocytes. […]\nHere we report the development and validation of a cell-based quantitative high throughput screening (qHTS) assay in 1,536-well format. This qHTS assay uses the NCI-H358 cell line with doxycycline-inducible expression of enhanced green fluorescent protein (eGFP)-tagged delta133p53alpha, which allows efficient and highly quantitative measurement of the protein levels. […]\n1. […] Cells were trypsinized, counted using a Counted 3 Automated Cell Counter (Thermo Fisher), and diluted to a concentration of 200,000 cells/ml. […]",
  "note": "The hits were mostly taken out for another list; the other results follow. Records with an inconclusive call do not appear. Activity calls are given as the source filed them. Calls come from the whole dose curve; as a rule, active = well fitted activation curve with a large enough effect; inconclusive = small, poorly fitted or top-dose-only effect; inactive = no such curve, though single readings can be large or run the other way.",
  "data": [
    {"smiles": "CC(C)(C)c1ccc(O)cc1", "values": [
      {"measurement": "activation", "result": "inactive: 1.69%"}
    ]}
  ]
}
